These are yes or no findings as the source states them, for the method shown. Binding seen in cells or lysates may run through a third protein. Binding can be weak; no strength is given.
Molecular target: T1, IKKα (UniProt O15111)
T1 sequence: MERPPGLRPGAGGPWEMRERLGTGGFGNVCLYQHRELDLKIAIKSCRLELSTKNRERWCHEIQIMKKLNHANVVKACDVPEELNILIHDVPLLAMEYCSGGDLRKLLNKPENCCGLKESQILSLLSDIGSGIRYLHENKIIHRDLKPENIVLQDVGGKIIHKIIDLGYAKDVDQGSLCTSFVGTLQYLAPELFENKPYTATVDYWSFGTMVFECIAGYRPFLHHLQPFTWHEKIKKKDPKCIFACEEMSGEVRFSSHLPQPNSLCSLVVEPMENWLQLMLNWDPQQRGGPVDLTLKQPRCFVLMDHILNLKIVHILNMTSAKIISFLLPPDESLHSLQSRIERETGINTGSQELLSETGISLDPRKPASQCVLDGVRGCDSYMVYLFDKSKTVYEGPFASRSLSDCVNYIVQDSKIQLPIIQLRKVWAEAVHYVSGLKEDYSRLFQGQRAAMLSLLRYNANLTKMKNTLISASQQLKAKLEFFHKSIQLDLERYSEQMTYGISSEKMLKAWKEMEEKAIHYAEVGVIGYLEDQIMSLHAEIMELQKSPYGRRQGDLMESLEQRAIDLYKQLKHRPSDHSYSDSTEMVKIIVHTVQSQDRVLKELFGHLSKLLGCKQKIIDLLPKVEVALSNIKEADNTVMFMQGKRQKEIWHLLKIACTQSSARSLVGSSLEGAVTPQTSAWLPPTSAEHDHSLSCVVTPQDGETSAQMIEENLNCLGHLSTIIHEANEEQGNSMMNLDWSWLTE
Experiment: co-IP; co-IP of AXL with NF-κB signalling proteins (Figure S24A,B) and of AKT with IKKα (Figure S24D); cells not given

## AKT (enzyme)
  binding: binds

From publication PMC11714167
